The source of these data is patent US6407214 (CELLTECH THERAPEUTICS, dated 2002).

These are yes or no findings as the source states them, for the method shown. Some binding calls cover weakened binding; strength is not graded here.

This experiment deals with T1, Lectin/EGF fragment from E-selectin (UniProt P16581 22-178, limits assumed).
T1 construct: domain: Lectin/EGF fragment; Soluble fragment; also called lectin/EGF fragment of E-selectin
T1 sequence (looked up): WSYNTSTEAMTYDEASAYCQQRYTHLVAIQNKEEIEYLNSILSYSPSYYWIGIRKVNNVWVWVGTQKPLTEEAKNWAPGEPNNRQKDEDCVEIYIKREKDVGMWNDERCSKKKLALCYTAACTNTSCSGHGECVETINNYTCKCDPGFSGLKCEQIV
Nature of the experiment: competition ELISA on captured lectin/EGF fragment; competitor biotinylated murine ENA-2. A general note: An ELISA detects its analyte on a solid surface through an enzyme-linked reagent.

B1: mouse ENA-2 (antibody, V domains shown)
VH: QVQLQQSGTELVRPGASVTLSCKASGYTFTDHEMHWVKQTPVLGLEWIGTIDPETGGTAYNQKFKGKATLTADKSSTTAYMDLRGLTSEDSAVFYCTVLRMDYWGQGTSLTVSA
VL: DIVMTQSPSSLTVTAGEKVTMRCKSSQSLLNSGNQQNYLTWYQQKPGQPPKLLIYWASTRESGVPDRFTGSGSGTDFTLTISSVQTEDLAVYYCQNDYDYPLTFGAGTKLEIKR
notes: Mouse IgG1/kappa whole antibody purified from hybridoma supernatant; The entries may include leader residues; also called mENA-2; murine ENA-2
As for B1, the binding entry is recorded as “binds”.
